No constants are given. Whether binding was seen depends on the method and setting. Binding can be weak; no strength is given.
Target: human septin 4 lacking the N-terminal domain (aa 124-478) (human) (UniProt O43236)
Test: two-hybrid; LexA-septin bait (modified pBTM116) in yeast L40 screened against human fetal brain and human leukocyte cDNA libraries (pACT2); minimal medium without Trp, Leu, His, with 5 mM 3-AT; every clone confirmed one-to-one with its bait by beta-galactosidase filter assay, empty bait vector as control

The chains behind the UniProt entries cited, without tags or fusion partners. Where a name states a change or a piece, a line headed by the entry shows the natural chain unless it says otherwise.
UniProt O43236: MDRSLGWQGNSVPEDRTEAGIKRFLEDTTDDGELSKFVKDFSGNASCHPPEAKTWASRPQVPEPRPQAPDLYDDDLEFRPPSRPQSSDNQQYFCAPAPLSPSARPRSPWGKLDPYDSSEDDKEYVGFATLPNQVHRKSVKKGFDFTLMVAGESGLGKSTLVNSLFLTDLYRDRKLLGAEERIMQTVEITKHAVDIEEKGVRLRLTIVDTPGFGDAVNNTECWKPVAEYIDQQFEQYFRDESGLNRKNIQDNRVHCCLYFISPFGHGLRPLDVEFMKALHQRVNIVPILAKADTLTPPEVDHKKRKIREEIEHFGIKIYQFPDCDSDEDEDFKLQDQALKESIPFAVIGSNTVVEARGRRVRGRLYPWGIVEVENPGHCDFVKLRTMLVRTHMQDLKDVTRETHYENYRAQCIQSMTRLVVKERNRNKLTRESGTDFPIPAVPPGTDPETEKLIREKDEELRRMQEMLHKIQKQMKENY

B1: human septin 6 (protein, UniProt Q14141-1 1-434)
chain: MAATDIARQVGEGCRTVPLAGHVGFDSLPDQLVNKSVSQGFCFNILCVGETGLGKSTLMDTLFNTKFEGEPATHTQPGVQLQSNTYDLQESNVRLKLTIVSTVGFGDQINKEDSYKPIVEFIDAQFEAYLQEELKIRRVLHTYHDSRIHVCLYFIAPTGHSLKSLDLVTMKKLDSKVNIIPIIAKADAISKSELTKFKIKITSELVSNGVQIYQFPTDDESVAEINGTMNAHLPFAVIGSTEELKIGNKMMRARQYPWGTVQVENEAHCDFVKLREMLIRVNMEDLREQTHTRHYELYRRCKLEEMGFKDTDPDSKPFSLQETYEAKRNEFLGELQKKEEEMRQMFVQRVKEKEAELKEAEKELHEKFDRLKKLHQDEKKKLEDKKKSLDDEVNAFKQRKTAAELLQSQGSQAGGSQTLKRDKEKKNNPWLCTE
Q: Which binding does the source give for B1 here?
A: binds

B2: human septin 8 (protein, UniProt Q92599-1 1-483)
chain: MAATDLERFSNAEPEPRSLSLGGHVGFDSLPDQLVSKSVTQGFSFNILCVGETGIGKSTLMNTLFNTTFETEEASHHEACVRLRPQTYDLQESNVQLKLTIVDAVGFGDQINKDESYRPIVDYIDAQFENYLQEELKIRRSLFDYHDTRIHVCLYFITPTGHSLKSLDLVTMKKLDSKVNIIPIIAKADTISKSELHKFKIKIMGELVSNGVQIYQFPTDDEAVAEINAVMNAHLPFAVVGSTEEVKVGNKLVRARQYPWGVVQVENENHCDFVKLREMLIRVNMEDLREQTHSRHYELYRRCKLEEMGFQDSDGDSQPFSLQETYEAKRKEFLSELQRKEEEMRQMFVNKVKETELELKEKERELHEKFEHLKRVHQEEKRKVEEKRRELEEETNAFNRRKAAVEALQSQALHATSQQPLRKDKDKKNRSDIGAHQPGMSLSSSKVMMTKASVEPLNCSSWWPAIQCCSCLVRDATWREGFL
Q: Which binding does the source give for B2 here?
A: binds

B3: human septin 10 (protein, UniProt Q9P0V9 1-454)
chain: MASSEVARHLLFQSHMATKTTCMSSQGSDDEQIKRENIRSLTMSGHVGFESLPDQLVNRSIQQGFCFNILCVGETGIGKSTLIDTLFNTNFEDYESSHFCPNVKLKAQTYELQESNVQLKLTIVNTVGFGDQINKEESYQPIVDYIDAQFEAYLQEELKIKRSLFTYHDSRIHVCLYFISPTGHSLKTLDLLTMKNLDSKVNIIPVIAKADTVSKTELQKFKIKLMSELVSNGVQIYQFPTDDDTIAKVNAAMNGQLPFAVVGSMDEVKVGNKMVKARQYPWGVVQVENENHCDFVKLREMLICTNMEDLREQTHTRHYELYRRCKLEEMGFTDVGPENKPVSVQETYEAKRHEFHGERQRKEEEMKQMFVQRVKEKEAILKEAERELQAKFEHLKRLHQEERMKLEEKRRLLEEEIIAFSKKKATSEIFHSQSFLATGSNLRKDKDRKNSNFL
Q: With B3 as the binder, how does the binding read?
A: binds

B4: human septin 7 (protein, UniProt Q16181-1 1-437)
chain: MSVSARSAAAEERSVNSSTMVAQQKNLEGYVGFANLPNQVYRKSVKRGFEFTLMVVGESGLGKSTLINSLFLTDLYSPEYPGPSHRIKKTVQVEQSKVLIKEGGVQLLLTIVDTPGFGDAVDNSNCWQPVIDYIDSKFEDYLNAESRVNRRQMPDNRVQCCLYFIAPSGHGLKPLDIEFMKRLHEKVNIIPLIAKADTLTPEECQQFKKQIMKEIQEHKIKIYEFPETDDEEENKLVKKIKDRLPLAVVGSNTIIEVNGKRVRGRQYPWGVAEVENGEHCDFTILRNMLIRTHMQDLKDVTNNVHYENYRSRKLAAVTYNGVDNNKNKGQLTKSPLAQMEEERREHVAKMKKMEMEMEQVFEMKVKEKVQKLKDSEAELQRRHEQMKKNLEAQHKELEEKRRQFEDEKANWEAQQRILEQQNSSRTLEKNKKKGKIF
Q: Which binding does the source give for B4 here?
A: no binding

Source: publication PMC2970546
